Measured values: PubChem BioAssay AID1671190 (National Center for Advancing Translational Sciences (NCATS), 2021)
The campaign covered roughly 580,000 compounds. About 6,100 (1.1%) were called active. Inconclusive results, whose numbers are uncertain, are shown with a selection of clear calls. Calls follow the shape of the dose curve; as a rule, active = well fitted inhibition curve with a large enough effect; inconclusive = small, poorly fitted or top-dose-only effect, or another doubt; inactive = no such curve, though single readings can be large or run the other way. Potencies beside an inconclusive call are fits to weak or partial responses and may not hold up.
Potency is read from the fitted curve at half-maximal effect.

Protein sequences, listed by entry. Tags and fused reporters are not part of them. Lines headed by an entry give the natural chain unless they say otherwise; changes in a name come on top.
UniProt P18054: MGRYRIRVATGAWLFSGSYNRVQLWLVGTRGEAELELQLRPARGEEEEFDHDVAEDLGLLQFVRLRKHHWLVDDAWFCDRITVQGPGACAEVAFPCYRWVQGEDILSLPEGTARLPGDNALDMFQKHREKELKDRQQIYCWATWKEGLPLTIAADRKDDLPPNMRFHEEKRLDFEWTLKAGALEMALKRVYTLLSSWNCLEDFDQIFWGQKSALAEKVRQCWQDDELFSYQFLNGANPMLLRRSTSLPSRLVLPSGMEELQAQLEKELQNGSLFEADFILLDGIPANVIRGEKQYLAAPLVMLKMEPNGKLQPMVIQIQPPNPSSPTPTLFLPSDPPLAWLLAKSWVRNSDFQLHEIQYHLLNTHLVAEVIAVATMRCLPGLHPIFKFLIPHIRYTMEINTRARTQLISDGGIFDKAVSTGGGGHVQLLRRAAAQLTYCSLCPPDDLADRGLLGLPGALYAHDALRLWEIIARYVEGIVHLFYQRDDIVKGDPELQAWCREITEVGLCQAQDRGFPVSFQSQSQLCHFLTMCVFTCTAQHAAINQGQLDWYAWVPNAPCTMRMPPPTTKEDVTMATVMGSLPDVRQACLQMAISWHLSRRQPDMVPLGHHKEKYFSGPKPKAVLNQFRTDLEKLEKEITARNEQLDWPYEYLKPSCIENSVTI

These compounds were tested against Polyunsaturated fatty acid lipoxygenase ALOX12 (Homo sapiens) (UniProt P18054) (assay: Primary qHTS assay for inhibitors of human arachidonate 12S-lipoxygenase (ALOX12): Round 2). Conditions: purified 12hLO, xylenol orange hydroperoxide absorbance; series mostly up to 108 µM.
In short: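 Purified human 12hLO at 150 nM in 25 mM Hepes, 0.01% Triton X-100, pH 7.0, preincubated 15 min at room temperature with compound. Reaction started with 40 uM arachidonic acid, 30 min at room temperature. Hydroperoxide measured by Fe-xylenol orange, 573/405 nm absorbance ratio.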
`COc1cc(NC(=O)CN2CCN(S(=O)(=O)c3ccc(Br)cc3)CC2)cc(OC)c1` was tested, and the Potency was inconclusive: 50.1 µM [inhibitor, partial curve, poor fit]. For `CCc1cc(=O)oc2cc(OCC(=O)N3CCCc4cc(OC)ccc43)ccc12`, the Potency was “inactive”. With `O=C(NC1CCN(Cc2ccc(Cl)cc2)CC1)c1cc(C2CC2)nc2ccccc12` the Potency was inconclusive: 44.7 µM [inhibitor, partial curve, poor fit]. `O=C1CN(c2cc(Cl)cc(Cl)c2)C(=O)CN1/N=C/c1cccnc1` was tested, and the Potency was inconclusive: 100 µM [inhibitor, single point]. `Nc1nc(-c2cccc(F)c2)cs1` was tested, and the Potency was inconclusive: 50.1 µM [inhibitor, partial curve, poor fit]. `COc1ccc(NC(=O)CSc2nc(-c3cc(OC)c(OC)c(OC)c3)[nH]c2-c2ccc(F)cc2)cc1` was tested, and the Potency was “inactive”. `CCCCn1c(O)c(C2=Nc3ccccc3SC(c3ccc(O)cc3)C2)c(=O)[nH]c1=O` (stereo not given) was tested, and the Potency was active: 28.2 µM. `Nc1nc(-c2ccc([N+](=O)[O-])cc2)cs1` was tested, and the Potency was inconclusive: 79.4 µM [inhibitor, partial curve, poor fit]. In the case of `Cc1[nH]nc2c1C1(C(=O)N(Cc3ccc(Cl)cc3)c3ccccc31)C(C#N)=C(N)O2` (stereo not given), the Potency is reported as inconclusive: 44.7 µM [inhibitor, partial curve, poor fit]. In the case of `Cc1cccc(NCc2ccc([N+](=O)[O-])s2)c1`, the Potency is reported as inconclusive: 20 µM [inhibitor, full curve, poor fit]. In the case of `CC1CCCC(NC(=O)CN2C(=O)NC(C)(c3ccccc3)C2=O)C1C` (stereo not given), the Potency is reported as “inactive”. `CNC(=O)c1ccc(NC(=O)Cc2ccc(OC)cc2)cc1` was tested, and the Potency was “inactive”. For `CN(C)c1ccc(/C=N/N(Cc2ccccc2)c2ccccc2)cc1`, the Potency was inconclusive: 50.1 µM [inhibitor, partial curve, poor fit]. With `CCc1nc2ccc(C(=O)N3CCN(C(=O)c4ccco4)CC3)cn2c1N(C)Cc1ccc(OC)cc1` the Potency was inconclusive: 50.1 µM [inhibitor, partial curve, poor fit]. In the case of `CC1(C)O[C@H]2OC([C@H](O)CON3C(=O)c4ccccc4C3=O)[C@H](O)[C@H]2O1` (stereo not given in full), the Potency is reported as inconclusive: 39.8 µM [inhibitor, partial curve]. `COC(=O)C1=C(C)N(Cc2ccccc2C(F)(F)F)C(=NCC2CC2)NC1c1ccc(C(F)(F)F)cc1` (stereo not given) was tested, and the Potency was inconclusive: 158 µM [inhibitor, partial curve, poor fit]. With `Cc1ccc(C(=O)N/C(=C/c2ccc(-c3cccc([N+](=O)[O-])c3)o2)C(=O)NC(C)C)cc1` the Potency was “inactive”. In the case of `O=[N+]([O-])c1ccccc1S(=O)c1ccccc1[N+](=O)[O-]`, the Potency is reported as “inactive”. In the case of `OC(c1cccc(Cl)c1)c1nc(-c2ccoc2)cs1` (stereo not given), the Potency is reported as inconclusive: 44.7 µM [inhibitor, partial curve, poor fit]. `Cc1cc(C2=CC(=O)C[C@H](c3ccc(F)cc3)C2)ccc1F` was tested, and the Potency was inconclusive: 35.5 µM [inhibitor, single point]. `COc1ccccc1-c1c(C)oc2c(CN3CCCCC3C)c(O)ccc2c1=O` (stereo not given) was tested, and the Potency was “inactive”. `CN(c1ccc(C(=O)NCc2cccnc2)cc1)S(=O)(=O)c1ccc(Cl)cc1` was tested, and the Potency was inconclusive: 112 µM [inhibitor, single point]. `CCOC(=O)c1c(NC(=O)c2cccs2)sc2c1CCCC2` was tested, and the Potency was “inactive”. For `CC(C)(C)[Si](C)(C)OCc1ccc(-c2c3c(cc4ccc(Cl)cc24)CCC3=O)cc1`, the Potency was inconclusive: 158 µM [inhibitor, partial curve, poor fit]. For `COc1ccc(-c2csc(/C=C/c3ccc4c(c3)OCO4)n2)cc1OC`, the Potency was inconclusive: 3.16 µM [inhibitor, full curve, poor fit]. In the case of `O=C(c1cccc(N2C(=O)C3C4C=CC(C4)C3C2=O)c1)N1CCN(c2ccc(F)cc2)CC1` (stereo not given), the Potency is reported as “inactive”. In the case of `CC1CCCC(NC(=S)NC(=O)c2cncc(Br)c2)C1C` (stereo not given), the Potency is reported as inconclusive: 44.7 µM [inhibitor, partial curve]. In the case of `COCCCN1C(=O)C(=O)/C(=C(/O)c2ccc(OC(C)C)cc2)C1c1ccncc1` (stereo not given), the Potency is reported as inconclusive: 1.78 µM [inhibitor, full curve, poor fit]. `O=C(c1ccco1)N1CCN(C2CCCC2)CC1` was tested, and the Potency was inconclusive: 0.631 µM [inhibitor, full curve, poor fit]. `Cc1c(-c2ccccc2)oc2c(C(=O)OCC(=O)NC(=O)NCCC(C)C)cccc2c1=O` was tested, and the Potency was inconclusive: 112 µM [inhibitor, single point]. With `CCOC(=O)C1CCN(S(=O)(=O)c2cn(C)c(C)n2)CC1` the Potency was inconclusive: 44.7 µM [inhibitor, partial curve, poor fit]. `CCN(CC)C(=O)NC1CC2CCCC(C1)N2Cc1ccccc1` (stereo not given) was tested, and the Potency was “inactive”. For `CCCOc1ccc(C2c3c(oc4ccccc4c3=O)C(=O)N2CCN(CC)CC)cc1OC` (stereo not given), the Potency was inconclusive: 2.82 µM [inhibitor, single point]. With `COc1cccc(N2C(=O)CN(Cc3cc(OC)c(OC)c(OC)c3)C2=S)c1` the Potency was “inactive”. With `O=C(N1CCCN(c2cc(-c3ccc(Cl)cc3)[nH]n2)CC1)C1(c2ccccc2)CC1` the Potency was inconclusive: 50.1 µM [inhibitor, partial curve, poor fit]. With `O=S(=O)(NCc1ccccc1Cn1cccn1)c1c(Cl)cccc1Cl` the Potency was inconclusive: 126 µM [inhibitor, single point]. For `COc1ccc(CNC(=O)c2cc(Nc3ccccc3C)nc3ccccc23)cc1`, the Potency was inconclusive: 0.631 µM [inhibitor, full curve, poor fit]. For `N#C/C(=C/c1cccc(OC(F)F)c1)c1ccccn1`, the Potency was inconclusive: 50.1 µM [inhibitor, partial curve, poor fit]. With `CCCCCOC(=O)CSc1nc2c(c(=O)[nH]c(=O)n2C)n1Cc1ccc(Cl)cc1` the Potency was inconclusive: 44.7 µM [inhibitor, partial curve, poor fit]. With `COc1ccc(C2=CC(=O)OC3(CCCCC3)O2)cc1` the Potency was inconclusive: 50.1 µM [inhibitor, partial curve, poor fit].
